From patent US8329736B2, “Triazole compounds that modulate HSP90 activity” (Synta Pharmaceuticals, Corp., priority 2006, dated 2012)
Some of these results come from one statement about several compounds together.

System: Her2
Test: Her2 degradation IC50 (Example B, Method 2, Table 2)
Type: cell-based, human
Conditions: read-out: IC50 range of compounds of the invention for Her2 degradation

`CC(C)c1cc(-c2nnc(O)n2Cc2ccc(-c3cn[nH]c3)cc2)c(O)cc1O` [Compound 187, 4-(4-(4-(1H-pyrazol-4-yl)benzyl)-5-hydroxy-4H-1,2,4-triazol-3-yl)-6-isopropylbenzene-1,3-diol] was tested, and the IC50 was > 1 µM.
